# Measurements reported in patent US11432547B2, “Inhibitors of GRB2-associated binding protein 1 (GAB1) and methods of treating cancer using the same” (Arizona Board of Regents on Behalf of the University of …, priority 2014, dated 2022).
# Sequences of proteins named here, by UniProt entry; tags and fusion partners are left off. Residues count along the entry.
# UniProt P31749, 5-108 limits assumed, species assumed: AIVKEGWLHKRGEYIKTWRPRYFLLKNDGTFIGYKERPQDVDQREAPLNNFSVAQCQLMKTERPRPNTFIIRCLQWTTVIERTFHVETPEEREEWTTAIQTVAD
# The name of at least one read-out is uncertain.
# Legend:
# IRS1 PH domain = biological target: T1, IRS1 PH domain (Homo sapiens, UniProt P35568); experiment: SPR binding assay, IRS1 PH domain (selectivity); settings: NB: No Binding
# T1 sequence (P35568 12-115 limits assumed): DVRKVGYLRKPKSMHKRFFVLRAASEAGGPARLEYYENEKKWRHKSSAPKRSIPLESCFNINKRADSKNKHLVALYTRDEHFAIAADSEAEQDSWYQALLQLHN
# GAB1 PH domain = biological target: T2, GAB1 PH domain (Homo sapiens, UniProt Q13480); experiment: SPR binding assay, GAB1 PH domain; settings: SPR direct binding, values without asterisk; NB: No Binding
# T2 sequence (Q13480 5-116 limits assumed): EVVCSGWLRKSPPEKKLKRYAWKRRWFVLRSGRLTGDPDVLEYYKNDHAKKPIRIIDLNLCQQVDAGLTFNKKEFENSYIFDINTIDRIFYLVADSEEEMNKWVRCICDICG
# AKT1 = AKT1 (Homo sapiens, UniProt P31749); experiment: Binding to AKT1 PH domain (Table 1); settings: values without asterisk; NB: No Binding
Structure (SMILES),Kn or Ki (μM) IRS1 (IRS1 PH domain),Kn or Ki (μM) GAB1 (GAB1 PH domain),Kn or Ki (μM) AKT1 (AKT1)
O=S(=O)(NCc1csc2ccc(Cl)cc12)c1cc(S(=O)(=O)c2ccccc2)cs1 [GAB-001],but not to IRS1 PH domain,,
Cc1onc(-c2ccccc2)c1-c1nc(CSc2nc3ccccc3[nH]2)no1 [GAB-010],,no binding,no binding
CCCCCCCCCCCCc1ccc(S(=O)(=O)Nc2nnc(CC(=O)OCC)s2)cc1 [GAB-016],,nanomolar binding affinity,
CCCCCCCCCCCCc1ccc(S(=O)(=O)Nc2nnc(C(=O)OCC)s2)cc1 [GAB-017],,nanomolar binding affinity,
